Assay results reported in the supplement of paper PMC12823440, “Inhibitors supercharge kinase turnover through native proteolytic circuits” (Nature, 2025).
Counter-ions that a name gives are not always drawn. The list shows a part of the results. Hit calls seldom repeat between salt and free forms of one compound.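 In K562 cells expressing nanoluciferase-fused kinases, luminescence was recorded at 4 h intervals between 2 and 18 h, normalized as percent of control with DMSO at 100% and a positive control at 0%. A significant (2 sigma) signal drop marks a time point as decreased. The authors' rule for a hit is not shown and takes in more than the number of time points.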

The chains behind the UniProt entries cited, without tags or fusion partners. Where a name states a change or a piece, a line headed by the entry shows the natural chain unless it says otherwise.
UniProt P00519, whole entry: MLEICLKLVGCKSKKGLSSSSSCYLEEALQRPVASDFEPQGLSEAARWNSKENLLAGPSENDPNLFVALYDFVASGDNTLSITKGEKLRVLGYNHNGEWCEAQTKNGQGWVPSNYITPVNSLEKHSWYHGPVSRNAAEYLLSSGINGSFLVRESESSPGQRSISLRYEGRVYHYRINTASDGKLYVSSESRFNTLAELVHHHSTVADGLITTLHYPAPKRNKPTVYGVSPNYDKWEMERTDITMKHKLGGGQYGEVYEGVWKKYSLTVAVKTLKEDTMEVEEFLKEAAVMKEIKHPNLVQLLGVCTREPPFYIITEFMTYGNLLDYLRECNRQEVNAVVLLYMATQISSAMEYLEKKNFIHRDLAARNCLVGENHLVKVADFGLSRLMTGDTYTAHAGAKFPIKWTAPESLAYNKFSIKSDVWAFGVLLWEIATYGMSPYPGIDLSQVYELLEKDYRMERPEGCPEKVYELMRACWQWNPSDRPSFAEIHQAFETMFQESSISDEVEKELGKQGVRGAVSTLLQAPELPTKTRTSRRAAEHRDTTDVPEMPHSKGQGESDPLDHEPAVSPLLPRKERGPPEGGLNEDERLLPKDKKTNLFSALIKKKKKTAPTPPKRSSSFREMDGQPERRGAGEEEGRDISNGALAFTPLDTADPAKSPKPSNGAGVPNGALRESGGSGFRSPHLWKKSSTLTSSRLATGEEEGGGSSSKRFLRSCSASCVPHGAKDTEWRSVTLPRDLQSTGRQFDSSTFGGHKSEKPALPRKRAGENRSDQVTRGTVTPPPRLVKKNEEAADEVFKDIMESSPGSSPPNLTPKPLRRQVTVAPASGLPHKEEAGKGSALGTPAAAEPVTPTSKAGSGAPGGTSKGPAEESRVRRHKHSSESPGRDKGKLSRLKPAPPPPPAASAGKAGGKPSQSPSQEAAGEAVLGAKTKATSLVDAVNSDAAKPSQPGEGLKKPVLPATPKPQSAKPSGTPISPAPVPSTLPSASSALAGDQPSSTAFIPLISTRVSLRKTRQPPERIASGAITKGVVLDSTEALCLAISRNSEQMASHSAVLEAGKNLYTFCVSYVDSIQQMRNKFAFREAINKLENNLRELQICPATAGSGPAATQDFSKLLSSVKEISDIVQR
UniProt P31749: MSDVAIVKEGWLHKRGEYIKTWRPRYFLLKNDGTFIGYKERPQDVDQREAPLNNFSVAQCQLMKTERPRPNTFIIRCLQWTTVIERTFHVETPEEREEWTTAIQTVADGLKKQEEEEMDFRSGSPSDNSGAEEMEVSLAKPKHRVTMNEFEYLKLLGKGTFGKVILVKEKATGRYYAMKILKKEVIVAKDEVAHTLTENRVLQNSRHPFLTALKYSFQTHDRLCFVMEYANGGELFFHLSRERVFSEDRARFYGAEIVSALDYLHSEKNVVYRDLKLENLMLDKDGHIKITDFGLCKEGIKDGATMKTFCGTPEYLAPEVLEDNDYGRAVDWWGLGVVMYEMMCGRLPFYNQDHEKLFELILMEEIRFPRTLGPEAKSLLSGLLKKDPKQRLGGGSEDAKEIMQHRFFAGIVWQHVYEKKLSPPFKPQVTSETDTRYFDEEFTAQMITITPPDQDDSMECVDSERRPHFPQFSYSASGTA
UniProt P10398: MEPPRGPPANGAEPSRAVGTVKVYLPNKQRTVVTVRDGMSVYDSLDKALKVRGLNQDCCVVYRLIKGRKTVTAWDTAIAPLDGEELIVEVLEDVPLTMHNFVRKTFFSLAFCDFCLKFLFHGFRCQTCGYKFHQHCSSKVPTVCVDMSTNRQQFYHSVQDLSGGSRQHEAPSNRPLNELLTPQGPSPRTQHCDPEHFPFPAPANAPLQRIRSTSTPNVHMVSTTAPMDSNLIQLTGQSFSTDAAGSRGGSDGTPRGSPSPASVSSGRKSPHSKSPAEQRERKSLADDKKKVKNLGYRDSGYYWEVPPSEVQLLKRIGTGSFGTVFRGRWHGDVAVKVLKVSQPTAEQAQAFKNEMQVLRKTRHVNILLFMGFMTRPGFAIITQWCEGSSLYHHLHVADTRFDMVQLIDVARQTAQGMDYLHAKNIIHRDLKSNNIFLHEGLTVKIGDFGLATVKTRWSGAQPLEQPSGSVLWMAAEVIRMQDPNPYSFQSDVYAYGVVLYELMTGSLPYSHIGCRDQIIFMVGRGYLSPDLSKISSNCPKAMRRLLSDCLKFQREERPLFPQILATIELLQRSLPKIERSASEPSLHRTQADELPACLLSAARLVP
UniProt O14965: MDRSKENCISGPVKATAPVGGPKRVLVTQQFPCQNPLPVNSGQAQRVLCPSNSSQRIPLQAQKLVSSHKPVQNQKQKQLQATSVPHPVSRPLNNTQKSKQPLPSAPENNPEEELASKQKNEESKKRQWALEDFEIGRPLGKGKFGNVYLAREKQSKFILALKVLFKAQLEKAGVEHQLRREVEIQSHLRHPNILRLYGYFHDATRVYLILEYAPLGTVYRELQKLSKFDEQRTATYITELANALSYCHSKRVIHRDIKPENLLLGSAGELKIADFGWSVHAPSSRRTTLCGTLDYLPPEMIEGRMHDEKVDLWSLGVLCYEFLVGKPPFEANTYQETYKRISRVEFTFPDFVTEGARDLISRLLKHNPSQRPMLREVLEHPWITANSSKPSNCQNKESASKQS
UniProt Q96GD4, whole entry: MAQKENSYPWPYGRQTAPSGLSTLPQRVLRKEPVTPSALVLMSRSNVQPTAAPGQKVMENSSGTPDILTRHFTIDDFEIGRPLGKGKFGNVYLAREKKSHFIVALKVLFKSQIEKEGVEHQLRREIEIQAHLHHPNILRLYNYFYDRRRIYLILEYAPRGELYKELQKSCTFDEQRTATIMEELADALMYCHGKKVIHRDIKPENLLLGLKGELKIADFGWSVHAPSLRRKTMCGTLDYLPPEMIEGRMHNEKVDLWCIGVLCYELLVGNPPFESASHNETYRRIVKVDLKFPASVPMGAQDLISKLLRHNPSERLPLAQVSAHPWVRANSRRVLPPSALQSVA
UniProt Q9UQB9: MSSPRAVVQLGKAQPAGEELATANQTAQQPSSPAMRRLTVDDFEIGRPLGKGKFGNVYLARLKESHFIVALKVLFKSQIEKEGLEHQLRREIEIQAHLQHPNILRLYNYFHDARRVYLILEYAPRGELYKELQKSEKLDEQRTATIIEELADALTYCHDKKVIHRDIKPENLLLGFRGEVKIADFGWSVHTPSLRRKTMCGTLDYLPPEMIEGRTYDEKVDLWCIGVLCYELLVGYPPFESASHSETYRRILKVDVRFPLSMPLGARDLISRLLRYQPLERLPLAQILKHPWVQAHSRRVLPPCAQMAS
UniProt P51813: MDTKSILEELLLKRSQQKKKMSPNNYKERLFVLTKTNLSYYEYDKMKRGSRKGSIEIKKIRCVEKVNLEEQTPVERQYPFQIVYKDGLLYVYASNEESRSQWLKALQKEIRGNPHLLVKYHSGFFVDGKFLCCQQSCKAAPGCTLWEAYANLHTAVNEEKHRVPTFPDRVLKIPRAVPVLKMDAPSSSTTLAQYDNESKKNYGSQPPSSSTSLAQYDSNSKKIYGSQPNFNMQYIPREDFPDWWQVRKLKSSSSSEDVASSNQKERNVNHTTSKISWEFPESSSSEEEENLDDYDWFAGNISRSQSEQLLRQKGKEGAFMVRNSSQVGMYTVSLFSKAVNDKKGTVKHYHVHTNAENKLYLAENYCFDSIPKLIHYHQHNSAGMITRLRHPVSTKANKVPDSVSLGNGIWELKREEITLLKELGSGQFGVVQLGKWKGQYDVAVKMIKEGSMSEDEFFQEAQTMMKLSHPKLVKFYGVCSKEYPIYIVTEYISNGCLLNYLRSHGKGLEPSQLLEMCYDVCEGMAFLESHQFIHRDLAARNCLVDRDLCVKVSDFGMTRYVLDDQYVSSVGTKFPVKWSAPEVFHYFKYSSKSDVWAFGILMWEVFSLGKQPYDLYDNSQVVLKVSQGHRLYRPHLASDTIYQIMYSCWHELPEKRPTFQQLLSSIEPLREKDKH
UniProt P15056, whole entry, looked up: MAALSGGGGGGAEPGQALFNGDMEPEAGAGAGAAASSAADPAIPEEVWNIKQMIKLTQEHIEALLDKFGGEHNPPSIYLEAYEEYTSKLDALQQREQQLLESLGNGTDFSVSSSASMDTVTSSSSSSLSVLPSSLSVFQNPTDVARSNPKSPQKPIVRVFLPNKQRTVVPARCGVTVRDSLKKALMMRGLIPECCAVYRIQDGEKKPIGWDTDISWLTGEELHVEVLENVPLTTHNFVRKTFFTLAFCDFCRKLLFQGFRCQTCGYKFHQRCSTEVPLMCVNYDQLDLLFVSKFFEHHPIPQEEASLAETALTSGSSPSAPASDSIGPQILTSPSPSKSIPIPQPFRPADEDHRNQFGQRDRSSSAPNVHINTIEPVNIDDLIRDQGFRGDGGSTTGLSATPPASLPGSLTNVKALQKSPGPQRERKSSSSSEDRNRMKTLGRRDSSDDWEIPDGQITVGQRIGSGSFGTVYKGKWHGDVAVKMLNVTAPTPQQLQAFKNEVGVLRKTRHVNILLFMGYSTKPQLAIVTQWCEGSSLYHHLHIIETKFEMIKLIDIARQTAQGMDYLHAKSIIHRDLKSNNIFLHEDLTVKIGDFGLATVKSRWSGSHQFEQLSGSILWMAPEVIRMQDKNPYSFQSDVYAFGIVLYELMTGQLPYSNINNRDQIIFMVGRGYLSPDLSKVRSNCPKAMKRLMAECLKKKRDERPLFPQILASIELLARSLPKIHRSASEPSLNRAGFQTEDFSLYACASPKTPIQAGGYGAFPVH
UniProt Q9UQM7, whole entry: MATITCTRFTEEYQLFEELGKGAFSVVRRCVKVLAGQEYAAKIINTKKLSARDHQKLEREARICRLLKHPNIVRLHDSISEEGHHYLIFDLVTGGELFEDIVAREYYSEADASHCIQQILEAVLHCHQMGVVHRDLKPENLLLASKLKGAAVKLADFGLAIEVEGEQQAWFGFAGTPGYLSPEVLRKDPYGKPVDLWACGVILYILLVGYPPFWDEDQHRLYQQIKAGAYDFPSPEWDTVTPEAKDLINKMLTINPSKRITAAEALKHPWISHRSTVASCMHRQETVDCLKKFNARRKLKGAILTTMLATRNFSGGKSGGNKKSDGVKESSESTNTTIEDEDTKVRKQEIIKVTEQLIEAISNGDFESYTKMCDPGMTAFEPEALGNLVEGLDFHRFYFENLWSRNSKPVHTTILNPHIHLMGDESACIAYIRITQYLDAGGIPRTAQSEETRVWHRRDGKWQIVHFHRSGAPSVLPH
UniProt Q15131: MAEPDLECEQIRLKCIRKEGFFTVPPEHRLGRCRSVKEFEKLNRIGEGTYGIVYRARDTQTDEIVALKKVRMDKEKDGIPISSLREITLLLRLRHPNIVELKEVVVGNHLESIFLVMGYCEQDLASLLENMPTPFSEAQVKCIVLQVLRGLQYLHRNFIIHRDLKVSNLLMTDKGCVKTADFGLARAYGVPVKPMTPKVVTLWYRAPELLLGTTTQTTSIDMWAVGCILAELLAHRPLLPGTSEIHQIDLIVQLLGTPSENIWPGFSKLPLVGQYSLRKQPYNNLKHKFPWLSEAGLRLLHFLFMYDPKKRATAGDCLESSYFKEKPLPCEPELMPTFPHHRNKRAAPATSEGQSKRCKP
UniProt P11802: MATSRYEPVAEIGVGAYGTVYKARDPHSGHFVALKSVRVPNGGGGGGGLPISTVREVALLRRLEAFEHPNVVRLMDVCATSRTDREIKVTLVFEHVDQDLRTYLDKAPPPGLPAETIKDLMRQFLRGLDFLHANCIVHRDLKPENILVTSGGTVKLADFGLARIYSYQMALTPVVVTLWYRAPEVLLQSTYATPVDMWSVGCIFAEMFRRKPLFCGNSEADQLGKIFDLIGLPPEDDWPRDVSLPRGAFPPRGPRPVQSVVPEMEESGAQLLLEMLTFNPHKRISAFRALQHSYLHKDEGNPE
UniProt Q00535, whole entry, looked up: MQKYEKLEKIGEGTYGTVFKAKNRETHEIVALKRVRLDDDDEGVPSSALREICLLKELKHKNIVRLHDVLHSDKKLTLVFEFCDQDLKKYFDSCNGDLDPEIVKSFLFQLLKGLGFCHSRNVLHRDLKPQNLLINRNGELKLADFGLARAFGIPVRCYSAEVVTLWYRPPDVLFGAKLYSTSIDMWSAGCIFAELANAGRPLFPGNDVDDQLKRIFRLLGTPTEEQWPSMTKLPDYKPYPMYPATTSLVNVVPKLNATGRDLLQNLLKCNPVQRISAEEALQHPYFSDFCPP
UniProt Q00534, whole entry: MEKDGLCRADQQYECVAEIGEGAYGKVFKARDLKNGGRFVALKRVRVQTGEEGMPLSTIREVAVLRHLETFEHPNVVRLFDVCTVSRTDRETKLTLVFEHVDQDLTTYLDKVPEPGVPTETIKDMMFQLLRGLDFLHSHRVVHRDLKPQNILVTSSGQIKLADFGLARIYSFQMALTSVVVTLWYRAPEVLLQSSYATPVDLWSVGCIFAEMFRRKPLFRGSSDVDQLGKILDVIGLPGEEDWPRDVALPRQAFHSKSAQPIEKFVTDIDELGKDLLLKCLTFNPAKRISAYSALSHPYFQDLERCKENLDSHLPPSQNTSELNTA

Columns and labels:
Experiment in all cases: kinase-Nluc reporter destabilization hit call (1 = scored as downregulated) (binary); higher = compound decreases kinase abundance
Conditions in all cases: K562; 2-18 h
[1] = biological target: ABL1 (UniProt P00519)
[2] = biological target: AKT1 (UniProt P31749)
[3] = biological target: ALK (UniProt Q9UM73)
[4] = biological target: ARAF (UniProt P10398)
[5] = biological target: AURKA (UniProt O14965)
[6] = biological target: AURKB (UniProt Q96GD4)
[7] = biological target: AURKC (UniProt Q9UQB9)
[8] = biological target: BLK (UniProt P51451)
[9] = biological target: BMX (UniProt P51813)
[10] = biological target: BRAF (UniProt P15056)
[11] = tested on: BRAF_V600E
[12] = biological target: BTK (UniProt Q06187)
[13] = biological target: CAMK2A (UniProt Q9UQM7)
[14] = biological target: CAMK2G (UniProt Q13555)
[15] = biological target: CDK10 (UniProt Q15131)
[16] = biological target: CDK2 (UniProt P24941)
[17] = biological target: CDK3 (UniProt Q00526)
[18] = biological target: CDK4 (UniProt P11802)
[19] = biological target: CDK5 (UniProt Q00535)
[20] = biological target: CDK6 (UniProt Q00534)

Measured: kinase-Nluc reporter destabilization hit call

CC(C)CN(CC(=O)N1CCN(CC(OCc2ccc3ccccc3c2)c2ccc(Cl)cc2Cl)CC1)CC(C)C (stereo not given) [LYN-1604 (dihydrochloride)] (2.5 µM)
inactive: [1] 0 | [2] 0 | [3] 0 | [4] 0 | [5] 0 | [6] 0 | [7] 0 | [8] 0 | [9] 0 | [10] 0 | [11] 0 | [12] 0 | [13] 0 | [14] 0 | [15] 0 | [16] 0 | [17] 0 | [18] 0 | [19] 0 | [20] 0

Cn1nccc1Nc1nccc(-c2cc3c(s2)C(C)(C)N(CCN2CCOCC2)C3=O)n1 (10 µM)
inactive: [1] 0 | [2] 0 | [3] 0 | [4] 0 | [5] 0 | [6] 0 | [7] 0 | [8] 0 | [9] 0 | [10] 0 | [11] 0 | [12] 0 | [13] 0 | [14] 0 | [15] 0 | [16] 0 | [17] 0 | [18] 0 | [19] 0 | [20] 0

Cn1cc(-c2ccc(CNc3cc(-c4cnc5cc(OCCCN6CCCC6)ccn45)ncn3)cc2)cn1 (10 µM)
inactive: [1] 0 | [2] 0 | [3] 0 | [4] 0 | [5] 0 | [6] 0 | [7] 0 | [8] 0 | [9] 0 | [10] 0 | [11] 0 | [12] 0 | [13] 0 | [14] 0 | [15] 0 | [16] 0 | [17] 0 | [18] 0 | [19] 0 | [20] 0

CCOc1ccc(C(=O)Nc2ncc([N+](=O)[O-])s2)cc1 (10 µM)
inactive: [1] 0 | [2] 0 | [3] 0 | [4] 0 | [5] 0 | [6] 0 | [7] 0 | [8] 0 | [9] 0 | [10] 0 | [11] 0 | [12] 0 | [13] 0 | [14] 0 | [15] 0 | [16] 0 | [17] 0 | [18] 0 | [19] 0 | [20] 0

Cc1ccc(NC(=S)NNc2c([N+](=O)[O-])cc(C(F)(F)F)cc2[N+](=O)[O-])cc1Cl (10 µM)
inactive: [1] 0 | [2] 0 | [3] 0 | [4] 0 | [5] 0 | [6] 0 | [7] 0 | [8] 0 | [9] 0 | [10] 0 | [11] 0 | [12] 0 | [13] 0 | [14] 0 | [15] 0 | [16] 0 | [17] 0 | [18] 0 | [19] 0 | [20] 0

COc1ccc(Cl)cc1NC(=O)Nc1cc(C)nc2ccccc12 (2.5 µM)
inactive: [1] 0 | [2] 0 | [3] 0 | [4] 0 | [5] 0 | [6] 0 | [7] 0 | [8] 0 | [9] 0 | [10] 0 | [11] 0 | [12] 0 | [13] 0 | [14] 0 | [15] 0 | [16] 0 | [17] 0 | [18] 0 | [19] 0 | [20] 0

N#Cc1c(-c2ccccc2)cc(-c2cc(Br)ccc2O)[nH]c1=O (10 µM)
inactive: [1] 0 | [2] 0 | [3] 0 | [4] 0 | [5] 0 | [6] 0 | [7] 0 | [8] 0 | [9] 0 | [10] 0 | [11] 0 | [12] 0 | [13] 0 | [14] 0 | [15] 0 | [16] 0 | [17] 0 | [18] 0 | [19] 0 | [20] 0

O=C(/C=C/c1ccc(O)c(O)c1)c1ccc(O[C@@H]2O[C@H](CO)[C@@H](O)[C@H](O)[C@H]2O)c(O)c1O [Marein] (10 µM)
inactive: [1] 0 | [2] 0 | [3] 0 | [4] 0 | [5] 0 | [6] 0 | [7] 0 | [8] 0 | [9] 0 | [10] 0 | [11] 0 | [12] 0 | [13] 0 | [14] 0 | [15] 0 | [16] 0 | [17] 0 | [18] 0 | [19] 0 | [20] 0

Cc1cc(Nc2nc(N[C@@H](C)c3ccc(F)cc3)c(C#N)cc2F)n[nH]1 (10 µM)
inactive: [1] 0 | [2] 0 | [3] 0 | [4] 0 | [5] 0 | [6] 0 | [7] 0 | [8] 0 | [9] 0 | [10] 0 | [11] 0 | [12] 0 | [13] 0 | [14] 0 | [15] 0 | [16] 0 | [17] 0 | [18] 0 | [19] 0 | [20] 0

COc1cc(N2CCC(N3CCN(C)CC3)CC2)ccc1Nc1ncc(Cl)c(Nc2ccccc2P(C)(C)=O)n1 [Brigatinib] (2 µM)
inactive: [1] 0 | [2] 0 | [3] 0 | [4] 0 | [5] 0 | [6] 0 | [7] 0 | [8] 0 | [9] 0 | [10] 0 | [11] 0 | [12] 0 | [13] 0 | [14] 0 | [15] 0 | [16] 0 | [17] 0 | [18] 0 | [19] 0 | [20] 0

Cc1csc(-c2nnc(Nc3ccc(Oc4ncccc4-c4ccnc(N)n4)cc3)c3ccccc23)c1 (2.5 µM)
inactive: [1] 0 | [2] 0 | [3] 0 | [4] 0 | [5] 0 | [6] 0 | [7] 0 | [8] 0 | [9] 0 | [10] 0 | [11] 0 | [12] 0 | [13] 0 | [14] 0 | [15] 0 | [16] 0 | [17] 0 | [18] 0 | [19] 0 | [20] 0

CC(=O)N1CCN(c2cc(-c3cc(C(F)(F)F)c4c(N)ncnn34)ccc2C#N)C(=O)C1(C)C (10 µM)
inactive: [1] 0 | [2] 0 | [3] 0 | [4] 0 | [5] 0 | [6] 0 | [7] 0 | [8] 0 | [9] 0 | [10] 0 | [11] 0 | [12] 0 | [13] 0 | [14] 0 | [15] 0 | [16] 0 | [17] 0 | [18] 0 | [19] 0 | [20] 0

O=C(NC(NC(=S)Nc1ccc(F)c([N+](=O)[O-])c1)C(Cl)(Cl)Cl)C(c1ccccc1)c1ccccc1 (stereo not given) (10 µM)
inactive: [1] 0 | [2] 0 | [3] 0 | [4] 0 | [5] 0 | [6] 0 | [7] 0 | [8] 0 | [9] 0 | [10] 0 | [11] 0 | [12] 0 | [13] 0 | [14] 0 | [15] 0 | [16] 0 | [17] 0 | [18] 0 | [19] 0 | [20] 0

COc1cc2ncn(-c3cc(OCc4ccccc4S(C)(=O)=O)c(C#N)s3)c2cc1OC (10 µM)
inactive: [1] 0 | [2] 0 | [3] 0 | [4] 0 | [5] 0 | [6] 0 | [7] 0 | [8] 0 | [9] 0 | [10] 0 | [11] 0 | [12] 0 | [13] 0 | [14] 0 | [15] 0 | [16] 0 | [17] 0 | [18] 0 | [19] 0 | [20] 0

Some of these compounds in order of SMILES length, rising.
Cc1csc(-c2nnc(Nc3ccc(Oc4ncccc4-c4ccnc(N)n4)cc3)c3ccccc23)c1 (2.5 µM)
inactive: [1] 0 | [2] 0 | [3] 0 | [4] 0 | [5] 0 | [6] 0 | [7] 0 | [8] 0 | [9] 0 | [10] 0 | [11] 0 | [12] 0 | [13] 0 | [14] 0 | [15] 0 | [16] 0 | [17] 0 | [18] 0 | [19] 0 | [20] 0

COc1cc(N2CCC(N3CCN(C)CC3)CC2)ccc1Nc1ncc(Cl)c(Nc2ccccc2P(C)(C)=O)n1 [Brigatinib] (2 µM)
inactive: [1] 0 | [2] 0 | [3] 0 | [4] 0 | [5] 0 | [6] 0 | [7] 0 | [8] 0 | [9] 0 | [10] 0 | [11] 0 | [12] 0 | [13] 0 | [14] 0 | [15] 0 | [16] 0 | [17] 0 | [18] 0 | [19] 0 | [20] 0

O=C(NC(NC(=S)Nc1ccc(F)c([N+](=O)[O-])c1)C(Cl)(Cl)Cl)C(c1ccccc1)c1ccccc1 (stereo not given) (10 µM)
inactive: [1] 0 | [2] 0 | [3] 0 | [4] 0 | [5] 0 | [6] 0 | [7] 0 | [8] 0 | [9] 0 | [10] 0 | [11] 0 | [12] 0 | [13] 0 | [14] 0 | [15] 0 | [16] 0 | [17] 0 | [18] 0 | [19] 0 | [20] 0

Remaining list, next part:

COc1c(NC(=O)C(=O)c2ccc(OCCN3CCOCC3)c3ccccc23)cc(C(C)(C)C)cc1NS(C)(=O)=O (2.5 µM)
inactive: [1] 0 | [2] 0 | [3] 0 | [4] 0 | [5] 0 | [6] 0 | [7] 0 | [8] 0 | [9] 0 | [10] 0 | [11] 0 | [12] 0 | [13] 0 | [14] 0 | [15] 0 | [16] 0 | [17] 0 | [18] 0 | [19] 0 | [20] 0

COc1cc(C(N)=O)nc(-c2cccc(C#C[C@]3(O)CCN(C)C3=O)c2)c1 (10 µM)
inactive: [1] 0 | [2] 0 | [3] 0 | [4] 0 | [5] 0 | [6] 0 | [7] 0 | [8] 0 | [9] 0 | [10] 0 | [11] 0 | [12] 0 | [13] 0 | [14] 0 | [15] 0 | [16] 0 | [17] 0 | [18] 0 | [19] 0 | [20] 0

CC(C)=CCC[C@](C)(O[C@@H]1O[C@H](CO)[C@@H](O)[C@H](O)[C@H]1O)[C@H]1CC[C@]2(C)[C@@H]1[C@H](O)C[C@@H]1[C@@]3(C)CC[C@H](O)C(C)(C)[C@@H]3[C@@H](O[C@@H]3O[C@H](CO)[C@@H](O)[C@H](O)[C@H]3O[C@@H]3O[C@@H](C)[C@H](O)[C@@H](O)[C@H]3O)C[C@]12C [Ginsenoside Re] (10 µM)
inactive: [1] 0 | [2] 0 | [3] 0 | [4] 0 | [5] 0 | [6] 0 | [7] 0 | [8] 0 | [9] 0 | [10] 0 | [11] 0 | [12] 0 | [13] 0 | [14] 0 | [15] 0 | [16] 0 | [17] 0 | [18] 0 | [19] 0 | [20] 0

O=C(/C=C/c1ccc(O)c(O)c1)OC1CC(OC(=O)/C=C/c2ccc(O)c(O)c2)(C(=O)O)CC(O)C1O (stereo not given) [1,3-Dicaffeoylquinic acid] (10 µM)
inactive: [1] 0 | [2] 0 | [3] 0 | [4] 0 | [5] 0 | [6] 0 | [7] 0 | [8] 0 | [9] 0 | [10] 0 | [11] 0 | [12] 0 | [13] 0 | [14] 0 | [15] 0 | [16] 0 | [17] 0 | [18] 0 | [19] 0 | [20] 0
